Here are results for two molecules from US7018810.

No constants are given. Whether binding was seen depends on the method and setting. In cells and extracts the contact can be indirect. Some results given as binding are weak or reduced against the parent protein; the word gives no strength. Tags and fused reporters may be left off the sequences shown.

Assay [1] deals with T1, human BMP4 protein (R&D Systems) (human) (UniProt P12644).
T1 sequence (looked up): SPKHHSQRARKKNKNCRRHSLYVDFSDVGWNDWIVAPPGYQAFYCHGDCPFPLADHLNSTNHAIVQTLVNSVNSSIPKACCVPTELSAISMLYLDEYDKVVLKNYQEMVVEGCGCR
Put plainly: co-immunoprecipitation on anti-FLAG M2 agarose ('IP with anti-flag Ab'), reducing SDS-PAGE, Western blot with anti-BMP 2/4 goat polyclonal antibody.

Assay [2] concerns the target T1, human BMP4 protein (R&D Systems) (human). Put plainly: co-immunoprecipitation on anti-FLAG M2 agarose, Western blot with anti-BMP 2/4 antibody.

B1: murine CHD-FLAG protein (mature form) (protein)
chain: TGPEPPALPIRSEKEPLPVRGAAGCSFGGKVYALDETWHPDLGEPFGVMRCVLCACEAPQWARRGRGPGRVSCKNIKPQCPTLACRQPRQLPGHCCQTCPQERSNLDPQPAGLVFEYPRDPEHRSYSDRGEPGVGERTRADGHTDFVALLTGPRSQAVARARVSLLRSSLRFSVSYQRLDRPSRVRFTDPTGNILFEHPATPTQDGLVCGVWRAVPRLSVRLLRAEQLRVALVTSTHPSGEVWGPLIWQGALAAETFSAILTLEDPLQRGVGGIALLTLSDTEDSLHFLLLFRGLLGGLAQAPLKLQILHQGQLLRELQANTSAQEPGFAEVLPSLTDQEMDWLELGELQMVLEKAGGPELRISGYITTRQSCDVLQSVLCGADALIPVQTGAAGSASFILLGNGSLIYQVQVVGTGSEVVAMTLETKPQRKNQRTVLCHMAGLQPGGHMAVGMCSGLGARGAHMLLQNELFLNVGTKDFPDGELRGHVTALCYSGHSARYDRLPVPLAGALVLPPVRSQAAGHAWLSLDTHCHLHYEVLLAGLGGSEQGTVTAHLLGPPGMPGPQRLLKGFYGSEAQGVVKDLEPVLLRHLAQGTASLLITTKSSPRGELRGQVHIASQCEAGGLRLASEGVQMPLAPNGEAATSPMLPAGPGPEAPVPAKHGSPGRPRDPNTCFFEGQQRPHGARWAPNYDPLCSLCICQRRTVICDPVVCPPPSCPHPVQALDQCCPVCPEKQRSRDLPSLPNLEPGEGCYFDGDRSWRAAGTRWHPVVPPFGLIKCAVCTCKGATGEVHCEKVQCPRLACAQPVRANPTDCCKQCPVGSGTNAKLGDPMQADGPRGCRFAGQWFPENQSWHPSVPPFGEMSCITCRCGAGVPHCERDDCSPPLSCGSGKESRCCSHCTAQRSSETRTLPELEKEAEHSVDGSGTDYKDDDDK
On to B1, for which the binding entry in assay [1] and in assay [2] was “binds” each time.

B2: murine CHL-FLAG polypeptide (mature form) (protein)
chain: EQVKHSDTYCVFQDKKYRVGEKWHPYLEPYGLVYCVNCICSENGNVLCSRVRCPSLHCLSPVHIPHLCCPRCPDSLPPVNNKVTSKSCEYNGTTYQHGELFIAEGLFQNRQPNQCSQCSCSEGNVYCGLKTCPKLTCAFPVSVPDSCCRVCRGDAELSWEHADGDIFRQPANREARHSYLRSPYDPPPNRQAGGLPRFPGSRSHRGAVIDSQQASGTIVQIVINNKHKHGQVCVSNGKTYSHGESWHPNLRAFGIVECVLCTCNVTKQECKKIHCPNRYPCKYPQKIDGKCCKVCPGKKAKGALAGGPAFGGSGTDYKDDDDK
In the case of B2, the binding result in assay [1] and in assay [2] was “binds” in each case.
